Source: patent US20020183249A1 (priority 1999, published 2002)

Columns and labels:
[1] = general procedure: Fmoc solid-phase peptide synthesis; Rink amide AM resin; HBTU, TBTU, HATU with N,N-diisopropylethylamine; details: whole synthesis, scale 0.1 mmol
[2] = general procedure: Fmoc solid-phase peptide synthesis; trityl resin; HBTU, TBTU, HATU with N,N-diisopropylethylamine; details: whole synthesis, scale 0.15 mmol
[3] = general procedure: Fmoc solid-phase peptide synthesis; Aad(tBu) loaded trityl resin; HBTU, TBTU, HATU with N,N-diisopropylethylamine; details: whole synthesis, scale 0.083 mmol

2-CH3O-Naphtyl-1-CO—Smp—Glu—Glu—Nal—Glu—NH2
isolated mass [1]: 25 mg

2-EtO-1-naphthyl -1-CO—Smp—Glu—Glu—Bta—Glu—NH2
isolated mass [1]: 22 mg

2-EtO-1-naphthyl-CO—Smp—Nva-(3-Me)Pro—Bta—Aad—NHtBu
crude mass [2]: 105 mg
crude yield [2]: 66%

2-CH3O-1-naphthyl-CO—Smp—Glu—Glu—Bta—Aad—NHtBu
isolated mass [3]: 13 mg
